Measured values as given in US7449480B2, “Small molecule inhibitors of HER2 expression” (Baylor College of Medicine, priority 2002, dated 2008).
At least one compound was matched to its structure with a doubt left. Residues, ends and D or L forms follow the SMILES beside them. *: point of attachment. FITC = O=C1OC2(c3ccc(O)cc3Oc3cc(O)ccc32)c2ccc(NC(=S)*)cc21

Target: T1, Sur-2 (GST-Sur2352-625) (Homo sapiens, UniProt Q9ULK4)
T1 construct: made in house
T1 sequence (Q9ULK4 352-625): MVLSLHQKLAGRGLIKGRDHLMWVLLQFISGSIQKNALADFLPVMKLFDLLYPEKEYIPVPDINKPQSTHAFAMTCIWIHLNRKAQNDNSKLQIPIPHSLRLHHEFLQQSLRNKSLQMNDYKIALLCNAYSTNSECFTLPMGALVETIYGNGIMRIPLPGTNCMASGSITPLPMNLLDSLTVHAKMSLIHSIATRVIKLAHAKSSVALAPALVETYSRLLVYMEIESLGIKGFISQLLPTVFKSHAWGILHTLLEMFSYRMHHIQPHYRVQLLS
Assay: Fluorescence perturbation study of FITC-ESX129-145 with GST-Sur-2352-625
Assay type: binding
Conditions: FITC-ESX129-145 (10 nM), PBS with 2% ethanol, emission at 522 nm; read-out: dissociation constant of the Sur-2 and ESX interaction

CC[C@H](C)[C@H](NC(=O)[C@H](Cc1c[nH]c2ccccc12)NC(=O)[C@H](CO)NC(=O)[C@H](CC(C)C)NC(=O)[C@H](CCC(=O)O)NC(=O)[C@H](CC(=O)O)NC(=O)[C@H](CO)NC(=O)[C@H](CO)NC(=O)[C@H](CO)NC(=O)[C@H](CO)NC(=O)[C@@H](NC(C)=O)[C@@H](C)O)C(=O)N[C@H](C(=O)N[C@@H](CCC(=O)O)C(=O)N[C@@H](CC(C)C)C(=O)N[C@@H](CC(C)C)C(=O)N[C@@H](CCC(=O)O)C(=O)N[C@@H](CCCCNC(=S)Nc1ccc2c(c1)C(=O)OC21c2ccc(O)cc2Oc2cc(O)ccc21)C(N)=O)[C@@H](C)CC [FITC-ESX129-145] (Ac-TSSSSDELSWIIELLEK(FITC)-NH2)
Kd: 12 µM
